From paper PMC6925144, “A prospective compound screening contest identified broader inhibitors for Sirtuin 1” (Scientific Reports, 2019)
Whole data set: some 3,200 compounds, median “TSA(with NAD+) / Primary screening (TSA) / delta Tm (K)” near -0.04, cut for the highest 2% near 0.37. The list shows a part of the results.

Protein sequences, listed by entry. Tags and fused reporters are not part of them. Residues count along the entry.
UniProt Q96EB6, 2-747 limits assumed: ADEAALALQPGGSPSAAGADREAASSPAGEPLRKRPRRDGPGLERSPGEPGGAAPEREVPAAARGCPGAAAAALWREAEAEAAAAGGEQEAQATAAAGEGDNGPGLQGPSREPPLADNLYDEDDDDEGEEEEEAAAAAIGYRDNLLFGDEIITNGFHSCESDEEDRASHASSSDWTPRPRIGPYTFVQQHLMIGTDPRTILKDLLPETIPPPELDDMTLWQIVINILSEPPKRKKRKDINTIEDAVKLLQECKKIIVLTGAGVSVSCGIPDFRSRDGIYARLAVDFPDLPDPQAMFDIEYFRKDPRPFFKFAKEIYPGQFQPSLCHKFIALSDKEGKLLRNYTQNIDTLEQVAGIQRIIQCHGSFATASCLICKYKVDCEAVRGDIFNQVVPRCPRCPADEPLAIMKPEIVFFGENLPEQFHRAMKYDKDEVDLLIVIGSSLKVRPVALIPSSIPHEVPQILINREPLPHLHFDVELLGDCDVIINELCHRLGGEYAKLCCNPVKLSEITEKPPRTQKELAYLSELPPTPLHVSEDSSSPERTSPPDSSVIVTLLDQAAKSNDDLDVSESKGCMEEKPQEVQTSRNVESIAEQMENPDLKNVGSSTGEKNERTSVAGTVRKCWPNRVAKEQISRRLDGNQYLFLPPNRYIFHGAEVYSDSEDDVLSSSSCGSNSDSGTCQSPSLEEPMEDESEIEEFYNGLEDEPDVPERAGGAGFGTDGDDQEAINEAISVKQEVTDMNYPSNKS

Molecular target: NAD-dependent deacetylase Sirtuin 1 (human, UniProt Q96EB6)
Test: primary screen, delta tm
Parameters: single well (n = 1, as 'the same TSA')
Conditions: 10 µM
Procedure: A total of 3,192 compounds extracted from the proposed lists were first screened by thermal shift assay (TSA), which determined a melting temperature shift (ΔTm) of Sirtuin 1 upon the addition of a test compound at a concentration of 10 µM (n = 1) with primary hit criteria of ΔTm > 0.45 K or ΔTm < −1.5 K. Primary hits (48 compounds) were retested in the same assay at three concentrations (5, 10, 20 µM, n = 4) for hit confirmation and for dose-dependency check. Secondary hits (41 compounds) were checked their selectivity for Sirtuin 1 based on counterscreening on unrelated protein targets (bovine carbonic anhydrase (CA) and recombinant SH2 domain of hABL1 kinase (ABL1)) at three different concentrations (5, 10, 20 µM, n = 4), which yielded 38 hit compounds, hereafter referred to as TSA hits. The TSA screening above was conducted in the absence of NAD+. As noted, the structure of Sirtuin 1 is different in the presence of NAD+ and substrate. The chemical profile of TSA hits found from the different conditions could be different. […] As a result, 39 TSA hits were found.

SMILES	TSA(with NAD+) / Primary screening (TSA) / delta Tm (K)
O=C(CC12CC3CC(CC(C3)C1)C2)NCC(=O)Nc1ccc(Sc2nc3ccccc3[nH]2)cc1	0.23 K
Cc1ccc(C(=O)Nc2cccc(/C=c3/s/c(=C(\C#N)C(=O)NCc4ccco4)n(-c4c(C)cccc4C)c3=O)c2)cc1	-0.01 K
CN(Cc1cccc2ccccc12)c1cc(=O)n2ccccc2n1	-0.19 K
O=C(NCCc1coc(-c2ccccc2)n1)c1cc(-c2ccco2)on1	0.16 K
Cc1ccc(Nc2nnc(SCC(=O)NC(=O)NCc3ccco3)s2)cc1	-0.03 K
O=c1c2ccncc2ncn1CC(O)c1cccc(Cl)c1 (stereo not drawn)	-0.03 K
Cc1n[nH]c(=O)c2c(NC(=O)CN3CCC(O)CC3)oc(C)c12	0.06 K
Nc1nc(-c2c(-c3ccccc3)[nH]c3ccccc23)cs1	0.16 K
CC(C)(C)N(Cc1ccccc1)C(=O)Cn1nnc2ccccc2c1=O	0.01 K
CCc1ccccc1NC(=O)CNC(=O)CCc1nc2ccccc2[nH]1	-0.06 K
CCC(C)c1ccccc1NC(=O)Cc1coc2ccc3ccccc3c12 (stereo not drawn)	-0.09 K
O=C(Nc1ccccc1Oc1ccccc1)c1ccccc1[N+](=O)[O-]	-0.15 K
COc1ccc2cccc(C=C3C(=O)NC(=S)NC3=O)c2c1	-0.26 K
Cc1c(NC=C2C(=O)NC(=S)NC2=O)c(=O)n(-c2ccccc2)n1C	0.06 K
CC(CC1CCCCCN1C(=O)OC(C)(C)C)NCc1cccc(C(N)=O)c1 (stereo not drawn)	0.01 K
Cn1c(-c2cccnc2)[n+](C)c2ccccc21	-0.05 K
NC(=O)c1ccc(CN2CCN(CCO)CC2)cc1	-0.18 K
CN(Cc1ccc(N(C)C)cc1)C(=O)c1cnc2ccccn2c1=O	-0.09 K
CC(c1ccccc1F)N(C)C(=O)CN(C)c1ncnc2nc[nH]c12 (stereo not drawn)	-0.03 K
CCCOc1cccc(C2C(C(=O)c3ccccc3)=C(O)C(=O)N2CCCN2CCOCC2)c1 (stereo not drawn)	-0.05 K

Of the compounds above, 2 have a tert-butyl group:
SMILES	TSA(with NAD+) / Primary screening (TSA) / delta Tm (K)
CC(C)(C)N(Cc1ccccc1)C(=O)Cn1nnc2ccccc2c1=O	0.01 K
CC(CC1CCCCCN1C(=O)OC(C)(C)C)NCc1cccc(C(N)=O)c1 (stereo not drawn)	0.01 K

Carrying on.

SMILES	TSA(with NAD+) / Primary screening (TSA) / delta Tm (K)
CCCc1cc(N2CCC(Cc3ccccc3)CC2)n2ncnc2n1	-0.01 K
COc1ccc(C(=O)C2=C(O)C(=O)N(CCN3CCOCC3)C2c2ccccn2)cc1OC (stereo not drawn)	-0.03 K
COc1cccc(NC(=O)CN(C)C(=O)c2ccccc2SCC(=O)NC23CC4CC(CC(C4)C2)C3)c1	-0.09 K
Nc1ncnc2c1cnn2-c1ccncc1	-0.13 K
Cc1cc(C)c(NC(=O)CN(C)C(=O)CNC(=O)C(C)(C)C)c(C)c1	0.09 K
Cn1ncc2c(N3CCN(CC(=O)Nc4ccc(Cl)cn4)CC3)ncnc21	-0.03 K
C=CCN(CCO)C(=O)Nc1cccc(I)c1	-0.11 K
CCOc1ccc(-n2c(C)cc(C(=O)COc3ccc(C(N)=O)cc3)c2C)cc1	-0.02 K
Cc1nc(C)c(CC(=O)Oc2ccccc2)c(=O)[nH]1	-0.02 K
O=C(O)c1ccc2[nH]c(CO)nc2c1	-0.16 K
CC(C)=CCN	-0.03 K
COc1cc(OC)cc(C(=O)NCC(=O)OCC(=O)NCC(=O)Nc2ccc(F)c(F)c2F)c1	-0.24 K
COc1cc(C(=O)Nc2cccc(S(=O)(=O)NCc3ccco3)c2)ccc1OCc1ccccc1	0.08 K
Cc1nc(S)sc1CC(=O)Nc1ccc(F)cc1	-0.04 K
CC(=O)N1CCCc2cc(S(=O)(=O)N3c4ccccc4CCC3C)ccc21 (stereo not drawn)	-0.05 K
O=C(O)c1nn(Cc2ccccc2)c(=O)c2ccccc12	-0.11 K
Oc1ccccc1/C=N/c1ccccc1O	-0.03 K
COc1ccc(N(C)S(=O)(=O)c2cccc(C(=O)Nc3ncc(C(N)=O)s3)c2)cc1	-0.03 K
c1ccc(CN2CCCC2)c(CNc2ncnc3sccc23)c1	-0.03 K
CCCOc1ccc(C(=O)C2=C(O)C(=O)N(CCCN3CCOCC3)C2c2cccnc2)cc1 (stereo not drawn)	-0.16 K

SMILES	TSA(with NAD+) / Primary screening (TSA) / delta Tm (K)
CCSCCOC(=O)c1ccc2[nH]c(C(F)F)nc2c1	-0.03 K
CCCC(=O)CN	-0.23 K
CC(C)NCCOCCN	-0.11 K
O=C1CCCN1c1cccc(NS(=O)(=O)c2ccc3nc[nH]c(=O)c3c2)c1	-0.14 K
COc1cc(C(=O)N(C)Cc2ccc(C(N)=O)cc2)cc(OC)c1OC	-0.11 K
COC(=O)CCC(NC(=O)OC(C)(C)C)C(=O)Nc1cccc(C(N)=O)c1C (stereo not drawn)	-0.05 K
CC(CN)CN(C)C (stereo not drawn)	-0.13 K
CCc1ccc(NC(c2cccnc2)c2ncc[nH]2)cc1CC (stereo not drawn)	-0.11 K
NC(=O)C1CCN(c2nc(-c3cccs3)nc3sc4c(c23)CCCC4)CC1	2.33 K
O=C(O)c1cc(/N=C/c2c(O)ccc3ccccc23)ccc1O	-0.01 K
NC(=O)c1cc(NC(=O)c2ccc(-c3ccccc3Cl)o2)ccc1Cl	-0.04 K
CCCCCc1nnc(NC(=O)c2cccc(S(=O)(=O)N(C)c3ccc(OC)cc3)c2)s1	0.35 K
COC(=O)c1ccc(C2C(C(=O)c3cccc(OC)c3)=C(O)C(=O)N2CCCN2CCOCC2)cc1 (stereo not drawn)	0.15 K
COc1ccc(C2C(C(=O)/C=C/c3ccco3)=C(O)C(=O)N2CCN2CCOCC2)cc1 (stereo not drawn)	0.07 K
Cn1cc(S(=O)(=O)N2CCC(C(=O)NCCOc3ccccc3)CC2)cc1C(N)=O	0.09 K
Cc1sc(NC(=O)c2cnc3ccccc3n2)nc1-c1ccc(F)c(F)c1	0.06 K
COc1ccc(/C=C2/Oc3ccc(Br)cc3C2=O)cc1	-0.01 K
Fc1ccc(-c2cn3cc(Cl)cc(Cl)c3n2)cc1	-0.15 K
NC(=O)c1cc(NCC(=O)N2CCc3ccccc32)c(F)cc1F	-0.38 K
CCOC(=O)C1=C(COC(=O)c2sc(-c3ccco3)nc2-c2ccccc2)NC(=O)NC1	0.06 K
